Where two headings read alike, the source gives them in different places. These are yes or no findings as the source states them, for the method shown. Binding seen in cells or lysates may run through a third protein. Some entries that bind do so weakly or less than the wild type. Where a sequence is shown, tags or fusion partners need not be part of it.
T1: endogenously-tagged B55^SUR-6 with the GFP and the FLAG tag (C. elegans) (UniProt G5EDR3)
T1 sequence: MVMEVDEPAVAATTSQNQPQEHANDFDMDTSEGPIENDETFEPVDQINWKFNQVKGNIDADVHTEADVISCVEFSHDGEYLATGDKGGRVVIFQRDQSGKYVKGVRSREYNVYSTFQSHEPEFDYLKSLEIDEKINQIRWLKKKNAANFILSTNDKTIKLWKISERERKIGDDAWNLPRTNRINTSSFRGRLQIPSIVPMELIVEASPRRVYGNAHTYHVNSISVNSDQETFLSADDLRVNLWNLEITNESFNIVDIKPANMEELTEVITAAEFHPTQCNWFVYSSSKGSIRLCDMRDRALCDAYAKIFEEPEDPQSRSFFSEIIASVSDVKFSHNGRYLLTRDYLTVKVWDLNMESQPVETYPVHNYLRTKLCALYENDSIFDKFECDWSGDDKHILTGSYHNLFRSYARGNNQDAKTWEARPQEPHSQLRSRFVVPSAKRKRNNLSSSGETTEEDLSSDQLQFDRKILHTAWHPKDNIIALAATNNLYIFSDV

The chains behind the UniProt entries cited, without tags or fusion partners.
UniProt G5EGK8: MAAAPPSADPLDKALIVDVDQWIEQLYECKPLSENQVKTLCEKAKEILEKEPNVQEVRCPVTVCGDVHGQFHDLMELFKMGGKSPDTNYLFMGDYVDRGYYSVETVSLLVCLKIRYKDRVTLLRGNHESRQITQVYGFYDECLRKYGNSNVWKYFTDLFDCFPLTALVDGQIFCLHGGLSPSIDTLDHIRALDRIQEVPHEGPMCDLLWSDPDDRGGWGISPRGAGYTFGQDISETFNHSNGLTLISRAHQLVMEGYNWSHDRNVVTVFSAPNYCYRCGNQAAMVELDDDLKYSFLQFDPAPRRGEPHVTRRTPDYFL


Experiments:
[1] = target: T1, endogenously-tagged B55^SUR-6 with the GFP and the FLAG tag (C. elegans); assay: co-IP
[2] = target: T1, endogenously-tagged B55^SUR-6 with the GFP and the FLAG tag (C. elegans); assay: co-IP; remark: listed apart in the source

| binding [1] | binding [2] | Molecule |
| --- | --- | --- |
| binds | – | PP2A catalytical subunit LET-92 (from UniProt G5EGK8 1-318) (enzyme) |
| – | binds | Glutathione S-transferase (GST)-tag LMN-1, recombinant full-length (protein, UniProt Q21443 1-566) MSSRKGTRSSRIVTLERSANSSLSNNGGGDDSFGSTLLETSRLQEKDHLTSLNSRLATYIDKVRQLEQENNRLQVQIRDIEVVEKKEKSNLADRFEAEKARLRRALDSAQDELAKYRIEYDAAKVEVKKLKPQVEKLERELAGAEEQALHAQSIADQSQAKQKTLQARNDKLVVENDDLKKQNITLRDTVEGLKKAVEDETLLRTAANNKIKALEEDLAFALQQHKGELEEVRHKRQVDMTTYAKQINDEYQSKLQDQIEEMRAQFKNNLHQNKTAFEDAYKNKLNAARERQEEAVSEAIHLRARVRDLETSSSGNASLIERLRSELDTLKRSFQEKLDDKDARIAELNQEIERMMSEFHDLLDVKIQLDAELKTYQALLEGEEERLNLTQEAPQNTSVHHVSFSSGGASAQRGVKRRRVVDVNGEDQDIDYLNRRSKLNKETVGPVGIDEVDEEGKWVRVANNSEEEQSIGGYKLVVKAGNKEASFQFSSRMKLAPHASATVWSADAGAVHHPPEVYVMKKQQWPIGDNPSARLEDSEGDTVSSITVEFSESSDPSDPADRCSIM |
| – | binds | GST-tagged tail domain (386-566 aa) of LMN-1 (domain or fragment, UniProt Q21443 386-566) RLNLTQEAPQNTSVHHVSFSSGGASAQRGVKRRRVVDVNGEDQDIDYLNRRSKLNKETVGPVGIDEVDEEGKWVRVANNSEEEQSIGGYKLVVKAGNKEASFQFSSRMKLAPHASATVWSADAGAVHHPPEVYVMKKQQWPIGDNPSARLEDSEGDTVSSITVEFSESSDPSDPADRCSIM |
